Assay results taken from patent US20230400467A1.
These are yes or no findings as the source states them, for the method shown. Some entries that bind do so weakly or less than the wild type.

Amino acid sequences for entries named in this document (tags omitted). A change or cut given only in a name is not applied to a line headed by its entry.
UniProt Q6DKI7: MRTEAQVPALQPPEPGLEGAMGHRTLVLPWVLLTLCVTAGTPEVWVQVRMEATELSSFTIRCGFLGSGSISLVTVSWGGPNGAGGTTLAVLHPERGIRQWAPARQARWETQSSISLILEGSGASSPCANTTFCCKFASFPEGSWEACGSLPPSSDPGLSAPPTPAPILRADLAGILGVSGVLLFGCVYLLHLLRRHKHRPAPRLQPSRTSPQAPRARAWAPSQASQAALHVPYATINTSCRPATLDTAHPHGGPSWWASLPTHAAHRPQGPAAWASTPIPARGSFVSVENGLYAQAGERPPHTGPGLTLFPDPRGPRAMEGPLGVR

Legend:
[1] = target: human PVRIG (Poliovirus Receptor Related Immunoglobulin Domain Containing Protein) (human) (UniProt Q6DKI7); test: IHC on FFPE tumour tissue
[2] = target: human PVRIG (Poliovirus Receptor Related Immunoglobulin Domain Containing Protein) (human) (UniProt Q6DKI7); test: IHC on FFPE tumour tissue, antibody at 3 ug/ml

binding [1]: binds | binding [2]: binds
B1: AB-635 PVRIG Ab (6D8-1 clone) (antibody, V domains shown)
VH: DVKFVESGGGLVKVGGSLKLSCAASGFTFSTYYMSWVRQTPEKRLELVAVINPTGGRTDFLDSVRGRFTISRDNAKNTLYLQMTSLKSEDTALYHCARRGELGRALDYWGQGTSVTVSS
VL: NIVLTQFPASLAVSLGQRASISCRASESVDSYGYSFIHWYQQKPGQPPKLLIYLASSLESGVPARFSGSGSRTDFTLTIDPVEANDAATYYCQQNNGDPWTFGGGTKLEIK
